Measurements: PubChem BioAssay AID1347075 (National Center for Advancing Translational Sciences (NCATS), 2019)
About 5,500 (1.4%) of roughly 400,000 compounds were called active. This list was built around the results that the source calls inconclusive (neither active nor inactive); the mix of calls is not that of the screen. Calls follow the shape of the dose curve; as a rule, active = well fitted cell-killing curve with a large enough effect; inconclusive = small, poorly fitted or top-dose-only effect, or effect the other way; inactive = flat fitted curve, though single readings scatter. Potencies of inconclusive entries are doubtful fits and often do not repeat.

Assay: qHTS assay for MDR1-selective chemotherapeutics: Primary screen using the parental adenocarcinoma cell KB-3-1; also: nearly all actives have a fitted effect of over 60% in size
Conditions: KB-3-1 viability, CellTiter-Glo ATP luminescence, 72 h; series mostly up to 46.1 µM
Summary of the method: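 Viability of parental KB-3-1 cells, measured by CellTiter-Glo luminescence, followed a 72 h incubation at 37 °C with pinned compounds in phenol-red-free DMEM containing 10% FBS.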
Potency is read from the fitted curve at half-maximal effect.

SMILES	Potency
O=C(N/N=C/c1ccccn1)c1cc(-c2ccc(Br)cc2)nc2ccccc12	inconclusive: 18.4 µM [cytotoxic, single point]
N#Cc1ccccc1NC(=O)COC(=O)c1ccc2c(c1)OCO2	inactive
Cn1c(=O)cc(SCC(=O)N2CCN(c3ccc(F)cc3)CC2)c2ccc(Cl)cc21	inactive
COc1ccc(C(C(=O)NC2CCCCC2)N(C(=O)CCl)c2cccc(Cl)c2)cc1 (stereo not given)	active: 18.4 µM
CCc1ccccc1NC(=O)Nc1ccon1	inactive
Cc1nnc2sc(-c3cccc4ccccc34)nn12	active: 7.31 µM
CCN1C(=O)/C(=C/c2cn(-c3ccccc3)nc2-c2cccnc2)SC1=S	inconclusive: 29.1 µM [rising, single point]
CC(=O)/C(C#N)=C1\NC(=O)C(Cc2ccc(F)cc2)S1 (stereo not given)	inconclusive: 23.1 µM [cytotoxic, partial curve, poor fit]
CCc1ccc(S(=O)(=O)N2CCN(C(=O)c3cccnc3)CC2)cc1	inactive
O=C(c1ccc(F)cc1Cl)N(Cc1ccco1)C1CCS(=O)(=O)C1 (stereo not given)	inactive
COc1cc(OC)c(N(C)C(=O)Cn2ncc3c([nH]c4ccccc43)c2=O)cc1Cl	inactive
CC(C)(C)n1nnnc1C(c1ccc(C(F)(F)F)cc1)N(Cc1ccc(F)cc1)Cc1ccco1 (stereo not given)	inconclusive: 25.9 µM [cytotoxic, single point]
Cc1cc(NC(=O)/C=C/c2cccc(F)c2)n(-c2nc3ccccc3[nH]2)n1	inconclusive: 29.1 µM [cytotoxic, single point]
CC(C)(C)c1ccc(C(=O)NN2CCOCC2)cc1	inactive
COc1ccccc1Nc1nnc(SCC2CCCCO2)s1 (stereo not given)	active: 16.4 µM
COC(=O)c1ccc(CCc2cc(O)c(Br)cc2O)cc1	inconclusive: 25.9 µM [cytotoxic, single point]
COCCOC(=O)C1=C(N)Oc2c(oc(CO)cc2=O)C1c1ccccc1F (stereo not given)	inconclusive: 20.6 µM [cytotoxic, single point]
CC(=O)N(C)c1ccc(OCC(O)Cn2c3ccc(Cl)cc3c3cc(Cl)ccc32)cc1 (stereo not given)	active: 20.6 µM
O=C(c1ccccc1F)N1CCN(c2ccccc2)CC1	inactive
COc1ccc(S(=O)(=O)N(C)CC(=O)Nc2ccc(C(N)=O)cc2)cc1OC	inactive
COc1cc(/C=N/NC(=O)c2cc(-c3cccs3)nc3ccccc23)ccc1O	inconclusive: 29.1 µM [cytotoxic, single point]
Cc1ccc(-c2cccc(C(=O)NCc3ccccc3)n2)c2ccccc12	inconclusive: 20.6 µM [cytotoxic, single point]
COc1cc(/C=N/NC(=O)c2ccncc2)ccc1Oc1ccc([N+](=O)[O-])cn1	inactive
CCCCCCN1C[C@H](n2cc(-c3ccc(F)cc3)nn2)[C@@H](O)C[C@@H]1c1ccc(C)cc1	inconclusive: 20.6 µM [cytotoxic, single point]

SMILES	Potency
c1ccc(CCN2CN=C(Nc3nc4ccccc4o3)NC2)cc1	inconclusive: 29.1 µM [cytotoxic, single point]
Cc1n[nH]c(C)c1CCOc1ccc(C(C)C)cc1	inconclusive: 25.9 µM [cytotoxic, single point]
CCc1ccc(NC(=O)CCc2ccc(C)o2)cc1	inconclusive: 25.9 µM [cytotoxic, single point]
Cc1ccc(N(CC(O)CN2CCOCC2)S(=O)(=O)c2ccc3ccccc3c2)cc1 (stereo not given)	inconclusive: 18.4 µM [cytotoxic, single point]
COc1cccc(C2c3[nH]c4ccccc4c3CCN2Cc2cnc(C)s2)c1OC (stereo not given)	inconclusive: 29.1 µM [cytotoxic, single point]
Cc1nc2ccc(NC(=O)c3cccc(S(=O)(=O)N(C)c4ccccc4)c3)cc2s1	inconclusive: 23.1 µM [cytotoxic, single point]
CC1(C(=O)NS(=O)(=O)c2ccccc2Cl)CCN1C(=O)c1ccccc1 (stereo not given)	inactive
CCOc1ccc(S(=O)(=O)Nc2cccc(C(=O)N(C)CC(=O)Nc3cccc(OC)c3)c2)cc1	inconclusive: 32.6 µM [cytotoxic, single point]
CCN(c1ccccc1)S(=O)(=O)c1ccc(C(=O)NCC(c2ccccc2OC)N2CCCC2)cc1 (stereo not given)	inconclusive: 29.1 µM [cytotoxic, single point]
C[n+]1ccnc2cc(Cl)ccc21	active: 4.11 µM
CC(/C=N/NC(=O)c1nnn(-c2nonc2N)c1CN1CCCCC1)=C\c1ccccc1	inconclusive: 18.4 µM [cytotoxic, partial curve, poor fit]
CSCCC1NC2(C(=O)Nc3c2ccc(Cl)c3C)[C@@H]2C(=O)N(C3CCCC3)C(=O)[C@H]12 (stereo not given in full)	inconclusive: 25.9 µM [cytotoxic, single point]
COc1ccc(Nc2nc(N)c(C(=O)c3ccc(F)cc3)s2)cc1	inconclusive: 0.651 µM [cytotoxic, full curve, poor fit]
O=C(O)Cc1ccc(NC(=S)Nc2cccc(Cl)c2Cl)cc1	inactive
Cc1ccc(NC(=O)CNC(=O)c2ccc(C(C)(C)C)cc2)cc1S(=O)(=O)N1CCOCC1	inconclusive: 0.0052 µM [rising, full curve, poor fit]
CC1CC(C)CN(C(=O)CSC2=Nc3ccccc3C3=NC(Cc4c[nH]c5ccccc45)C(=O)N23)C1 (stereo not given)	inconclusive: 12.6 µM [cytotoxic, single point]
C=CCn1c(SCC(=O)c2cccs2)nc2sc(C)c(C)c2c1=O	inconclusive: 11.6 µM [cytotoxic, partial curve, poor fit]
COC(=O)[C@@]1(Cc2ccccc2)[C@H]2C(=O)N(Cc3ccccc3)C(=O)[C@H]2[C@H]2CN=C(SCc3ccc(Cl)cc3)N21	inconclusive: 18.4 µM [cytotoxic, single point]
O=C(Nc1ccc(C(=O)N2CCCCC2)cc1)c1ccccc1Br	inactive
O=S(=O)(c1ccccc1)N1CCN(C2CCCCCCC2)CC1	inactive
O=C1CCN(Cc2ccc(O)cc2)CCN1[C@H](CO)c1ccccc1	inactive
COCCN(CCOC)C(=O)c1ccc(CSc2nc3ccccc3s2)cc1	inconclusive: 29.1 µM [cytotoxic, single point]
CC(C)(C)c1ccc(-c2nc(C#N)c(NCc3cccnc3)o2)cc1	inactive
N#Cc1c(NC(=O)c2cnccn2)sc2c1CCCC2	inconclusive: 29.1 µM [cytotoxic, single point]

As a working copy, part of the list above:
SMILES	Potency
COCCOC(=O)C1=C(N)Oc2c(oc(CO)cc2=O)C1c1ccccc1F (stereo not given)	inconclusive: 20.6 µM [cytotoxic, single point]
CC(=O)N(C)c1ccc(OCC(O)Cn2c3ccc(Cl)cc3c3cc(Cl)ccc32)cc1 (stereo not given)	active: 20.6 µM
O=C(c1ccccc1F)N1CCN(c2ccccc2)CC1	inactive
COc1ccc(S(=O)(=O)N(C)CC(=O)Nc2ccc(C(N)=O)cc2)cc1OC	inactive
COc1cc(/C=N/NC(=O)c2cc(-c3cccs3)nc3ccccc23)ccc1O	inconclusive: 29.1 µM [cytotoxic, single point]
Cc1ccc(-c2cccc(C(=O)NCc3ccccc3)n2)c2ccccc12	inconclusive: 20.6 µM [cytotoxic, single point]
COc1cc(/C=N/NC(=O)c2ccncc2)ccc1Oc1ccc([N+](=O)[O-])cn1	inactive
CCCCCCN1C[C@H](n2cc(-c3ccc(F)cc3)nn2)[C@@H](O)C[C@@H]1c1ccc(C)cc1	inconclusive: 20.6 µM [cytotoxic, single point]
c1ccc(CCN2CN=C(Nc3nc4ccccc4o3)NC2)cc1	inconclusive: 29.1 µM [cytotoxic, single point]
Cc1n[nH]c(C)c1CCOc1ccc(C(C)C)cc1	inconclusive: 25.9 µM [cytotoxic, single point]
CCc1ccc(NC(=O)CCc2ccc(C)o2)cc1	inconclusive: 25.9 µM [cytotoxic, single point]
Cc1ccc(N(CC(O)CN2CCOCC2)S(=O)(=O)c2ccc3ccccc3c2)cc1 (stereo not given)	inconclusive: 18.4 µM [cytotoxic, single point]
COc1cccc(C2c3[nH]c4ccccc4c3CCN2Cc2cnc(C)s2)c1OC (stereo not given)	inconclusive: 29.1 µM [cytotoxic, single point]

(cont.)

SMILES	Potency
NC(=O)c1ccc(N2CCN(S(=O)(=O)c3ccccc3)CC2)c([N+](=O)[O-])c1	active: 18.4 µM
O=C(NCCCN1CCN(c2ccc(F)cc2)CC1)Nc1ccc(Cl)cc1	inactive
CCCCCn1c(=N)c(S(=O)(=O)c2ccc(Cl)cc2)cc2c(=O)n3cccc(C)c3nc21	inconclusive: 16.4 µM [cytotoxic, single point]
CC(CC(=O)Nc1ccc2c(c1)c(=O)n(C)n2-c1ccc2ccccc2c1)C(F)(F)F (stereo not given)	active: 5.8 µM
O=C(NNS(=O)(=O)c1ccccc1[N+](=O)[O-])c1ccc(F)cc1	inconclusive: 29.1 µM [cytotoxic, single point]
CCCc1nc([N+](=O)[O-])c(S(=O)(=O)c2ccccc2)n1CC(C)C	inconclusive: 6.51 µM [cytotoxic, partial curve]
COc1cccc(-c2nc(CS(=O)(=O)CC(=O)NCc3ccc(C)cc3)c(C)o2)c1	inactive
COc1ccc(C(=O)/C(C#N)=N/Nc2ccccc2[N+](=O)[O-])cc1	inconclusive: 2.06 µM [cytotoxic, partial curve, poor fit]
Cc1ccc(CN2C(=O)C(O)(c3c[nH]c4ccccc34)c3cc(Cl)ccc32)cc1 (stereo not given)	inactive
CCc1nc(SCC(=O)Nc2nnc(CC(C)C)s2)n[nH]1	inactive
C=CCn1c(CCC(=O)O)ccc1-c1ccccc1	inconclusive: 29.1 µM [cytotoxic, single point]
CC(C)(C)n1[nH]c2c3c(ccc2c1=O)C(=O)c1ccccc1C3=O	inconclusive: 29.1 µM [cytotoxic, single point]
Nc1nonc1-n1nnc(C(=O)N/N=C/c2ccc(OCc3ccccc3F)cc2)c1CNc1ccccc1	inconclusive: 16.4 µM [rising, partial curve, poor fit]
COc1ccc(C)cc1N(C(=O)c1ccccc1F)c1nc2ccccc2s1	inactive
CN(C)CCCOC(=O)N1c2ccccc2C=Cc2ccccc21	active: 25.9 µM
Cc1ccc2c(c1)NC(c1cccnc1)=NC(c1ccc(F)cc1)=N2	inconclusive: 29.1 µM [cytotoxic, single point]
COc1ccc2oc(C(=O)Nc3ccccc3N3CCOCC3)c(C)c2c1	inconclusive: 5.8 µM [cytotoxic, partial curve, poor fit]
CC(=O)Nc1sc(C)c(C)c1C(=O)OCC(=O)N(CC(C)C)c1c(N)n(Cc2ccccc2)c(=O)[nH]c1=O	inconclusive: 29.1 µM [cytotoxic, single point]
N#Cc1cccc(NC(=O)CSc2ccc3c4c(cccc24)C(=O)c2ccccc2-3)c1	inconclusive: 29.1 µM [cytotoxic, single point]
COc1cc(/C=N/Nc2snc(SC)c2C#N)cc(OC)c1OC	inconclusive: 1.84 µM [cytotoxic, full curve]
CCOC(=O)[C@]12CCCC=C1N(Cc1ccccc1)C(=O)[C@H](CC(=O)NCC13CC4CC(CC(C4)C1)C3)C2	active: 18.4 µM
CCC(=O)N1CCN(c2nc(-c3ccc(Cl)cc3)cs2)CC1	inconclusive: 29.1 µM [cytotoxic, single point]
